Source: patent US20190248900A1
Changes are numbered by the printed parent chain. Results are given in words; binding and its absence hold for the method and conditions named. Some entries that bind do so weakly or less than the wild type.

Sequences of proteins named here, by UniProt entry; tags and fusion partners are left off. A change or cut given only in a name is not applied to a line headed by its entry. Residues count along the entry.
UniProt Q15116: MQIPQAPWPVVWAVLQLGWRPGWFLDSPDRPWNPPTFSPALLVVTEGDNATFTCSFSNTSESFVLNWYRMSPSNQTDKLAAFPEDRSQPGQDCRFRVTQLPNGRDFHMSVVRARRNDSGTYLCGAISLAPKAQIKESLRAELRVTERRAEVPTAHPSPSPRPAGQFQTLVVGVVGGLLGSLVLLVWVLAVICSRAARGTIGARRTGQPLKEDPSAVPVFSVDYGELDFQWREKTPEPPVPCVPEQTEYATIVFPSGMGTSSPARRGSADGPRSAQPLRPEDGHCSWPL
human PD-1 (NM_005018.2) over-expressed on cells: residues 25-288 of Q15116
antigen PD1 (coated, construct not stated): residues 25-170 of Q15116
PD1-his (Catalog Number 10377-H08H, Sino Biological Inc.): residues 25-167 of Q15116

B1: PD1-41C9 (antibody, V domains shown)
VH: QMQLVESGGGVVQPGRSLRLSCAASGFTFSSYAMHWVRQAPGKGLEWVAVISYDGSNKYYADSVKGRFTISRDNSKNTLYLQMNRLRSEDTAVYYCTTTTFDSWGQGTLITVSS
VL: DIVMTQTPLSLPVTPGEAASISCRSSQSLLDSEDGNTYLDWYLQKPGQSPQLLIYTLSHRASGVPDRFSGSGSGTDFTLKISRVAAEDVGLYYCLQRMGFPYTFGQGTKLDIK
B2: PD1-49A2(A/2A11) (antibody, V domains shown)
VH: B1 VH with M2V, S30R, S56Q, N57D, R85S, S88A, I110V
VL: B1 VL with A18P, L30F, E33D, Q51R, S62L, D111E
B3: PD1-74A01 (antibody, V domains shown)
VH: B1 VH with M2V, R85S, T97V, T98P, D102E, S103Y, T108S, L109Q, I110V
VL: DIVMTQTPLSLPVTPGEPASISCRSSQSLLDRGGGHTYLDWYLQKPGQSPQLLIYTLSHRASGVPDRFSGSGSGTDFTLKISRVEAEDVGIYYCMQRKEFPLTFGPGTKLEIK
B4: PD1-74H12 (antibody, V domains shown)
VH: QVQLVESGGGVVQPGRSLRLSCAASGFTFSSYAMHWVRQAPGKGLEWVAVISYDGSNKYYADSVKGRFTISRDNSKNMLYLEMNSLRAEDTAVYYCVPTTFEYWGQGSQVTVSS
VL: DIVMTQTPLSLSVTPGEPASISCRSSQSLLDSDDGNTYLDWYLQKPGQSPQLLIYTLSHRASGVPDRFSGRGSHTDFTLTISSVEAEDVGVYYCMQRIHFPLTFGQGTRLEIK
B5: PD1-52E8 (antibody, V domains shown)
VH: QVQLVQSGGNLVQPGRSLRLSCAASGFTFDDYAMHWVRQAPGKGLEWVSGISWNSGTPGYADSVQGRFTISRDNAKNSLYLQMNSLRAEDTAVYYCARGHNYLDSSYYDYWGQGTLVTVSS
VL: SYELTQPLSLSVAPGQTARITCSGDALSKEYSYWYQQKPGQAPVLVMYKDSERPSGIPERFSGSSSGTTVTLTISGVQAEDEADYYCQSVDSSDTSVVFGGGTKLTVL
B6: PD1-45D6(A/4H6) (antibody, V domains shown)
VH: B4 VH with S56N, N57D, M78T, E82Q, S108T, Q109L
VL: B1 VL with A18P, L30F, E33D, A85E, L95M, M98V, G99E, Y102F, D111E
B7: PD1-45D6(A/3G1) (antibody, V domains shown)
VH: B4 VH with A40V, S56N, N57D, M78T, E82Q
VL: B1 VL with A18P, K80E, A85E, L91V, L95M, M98V, G99E, Y102F
B8: PD1-45D6(A/3H4) (antibody, V domains shown)
VH: B4 VH with A40V, S56N, N57D, M78T, E82Q
VL: DIVMTQTPLSLPVTPGEPASISCRSSQSLFDSDDGNTYLDWYLQKPGQSPQLLIYTLSHRASGVSDRFSGSGSGTDFTLKISRVEAEDSGIYYCMQRVEFPFTFGQGTKLDIK
B9: PD1-45D6(A/4D4) (antibody, V domains shown)
VH: B4 VH with S56N, N57D, M78T, E82Q, S108T, Q109L
VL: B8 VL with F30L, D33E, S65P, D76E, T78N, K80R, S89V, L110V
B10: PD1-45D6(A/5C8) (antibody, V domains shown)
VH: B4 VH with S30M, S31R, S56N, N57D, M78T, E82Q, S108T, Q109L
VL: B8 VL with T7S, F30L, D33E, S65P, S89V, I91V
B11: PD1-45D6(A/5A6) (antibody, V domains shown)
VH: B4 VH with S30R, S31L, Y53H, S56N, N57D, M78T, E82Q, S108T, Q109L
VL: B1 VL with A18P, A85E, L91V, L95M, M98I, G99D
B12: PD1-45D6(A/5B12) (antibody, V domains shown)
VH: B4 VH with S31V, S56N, N57D, M78T, E82Q, S108T, Q109L
VL: B8 VL with P18A, F30L, D33E, S65P, S89V, L110V, D111E
B13: PD1-45D6(A/4C9) (antibody, V domains shown)
VH: B4 VH with S56N, N57D, M78T, E82Q, S108T, Q109L
VL: B1 VL with L91I, L95M, M98V, G99E, Y102F, D111E
B14: PD1-45D6(A/3H6) (antibody, V domains shown)
VH: B4 VH with A40V, S56N, N57D, M78T, E82Q
VL: B1 VL with A85E, L91V, L95M, M98V, G99E, Y102F, D111E
B15: PD1-45D6(A/5H9) (antibody, V domains shown)
VH: B4 VH with S30W, S31T, S56N, N57D, M78T, E82Q, S108T, Q109L
VL: B8 VL with F30L, K80E, S89V, I91V, V98R, E99D, L110V, D111E
B16: PD1-45D6(A/4C1) (antibody, V domains shown)
VH: B4 VH with S56N, N57D, M78T, E82Q, S108T, Q109L
VL: B8 VL with F30L, S65P, S89V
B17: PD1-49A2(A/2B10) (antibody, V domains shown)
VH: B1 VH with M2V, S30L, S31V, N57H, R85S, S88A, I110V
VL: B8 VL with F30L, S65P, E85A, S89V, I91L
B18: PD1-49A2(A/1F12) (antibody, V domains shown)
VH: B1 VH with M2V, S30R, S31N, S56Q, N57H, R85S, S88A, G105S, I110V
VL: B8 VL with L9H, F30L, D33E, S62L, S65P, V98I, F102Y, D111E
B19: PD1-49A2(A/1H4) (antibody, V domains shown)
VH: B1 VH with M2V, S30P, S31I, S56A, N57H, R85S, S88A, I110V
VL: B8 VL with T7S, P18A, F30L, D33E, S65P, F102Y
B20: PD1-49A2(A/2D7) (antibody, V domains shown)
VH: B1 VH with M2V, S30K, S31T, S56Q, N57H, R85S, S88A, I110V
VL: DIVMTQTPLSLPVTPGEPASISCRSSQSLLDRDGGHTYVDWYLQKPGQSPRLLIYTLSHRALGVPDRFSGSGSGTDFTLKISRVEADNVGLYYCMQRIEFPFTFGQGTKVEIK

Each binder was assayed against antigen PD1 (coated, construct not stated) (UniProt Q15116) (assay: specificity ELISA, 1 ug/ml, OD490).

binding | Binder
binds | B1

These binders were tested against antigen PD1 (coated, construct not stated) (UniProt Q15116) (assay: scFv-phage ELISA of optimisation clones, OD490).

binding | Binder
binds | B2

Each binder was assayed against human PD-1 (NM_005018.2) over-expressed on cells (human) (UniProt Q15116) (assay: flow cytometry on cells expressing PD-1, drawn table).

binding | Binder
binds | B3
binds | B4

Each binder was assayed against cynoPD1 (assay: ELISA, 1 ug/ml).

binding | Binder
binds | B5
binds | B1

What follows are binders tested against PD1-his (Catalog Number 10377-H08H, Sino Biological Inc.) (UniProt Q15116) (assay: monoclonal scFv-phage ELISA on coated PD1 antigen).

binding | Binder
binds | B5

These binders were tested against antigen PD1 (coated, construct not stated) (UniProt Q15116) (assay: monoclonal scFv-phage ELISA on coated PD1 antigen).

binding | Binder
binds | B6
binds | B7
binds | B8
binds | B9
binds | B10
binds | B11
binds | B12
binds | B13
binds | B14
binds | B15
binds | B2
binds | B16
binds | B17
binds | B18
binds | B19
binds | B20
